No constants are given. Whether binding was seen depends on the method and setting. Some binding calls cover weakened binding; strength is not graded here.
Molecular target: T1, GPR180 (G protein-coupled receptor 180) (human (endogenous in HEK-293T)) (UniProt Q86V85)
T1 sequence: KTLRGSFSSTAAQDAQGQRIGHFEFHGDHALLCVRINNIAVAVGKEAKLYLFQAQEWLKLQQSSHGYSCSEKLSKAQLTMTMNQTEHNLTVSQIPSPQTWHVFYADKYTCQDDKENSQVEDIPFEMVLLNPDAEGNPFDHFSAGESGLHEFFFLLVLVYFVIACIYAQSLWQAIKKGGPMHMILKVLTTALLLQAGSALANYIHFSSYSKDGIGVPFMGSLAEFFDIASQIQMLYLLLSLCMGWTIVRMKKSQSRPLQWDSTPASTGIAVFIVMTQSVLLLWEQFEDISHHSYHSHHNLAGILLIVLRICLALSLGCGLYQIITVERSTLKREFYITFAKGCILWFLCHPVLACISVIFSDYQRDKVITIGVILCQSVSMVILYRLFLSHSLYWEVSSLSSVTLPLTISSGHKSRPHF
Experiment: binding of HiBiT-tagged ligand to cells, read by HiBiT blotting of cell extracts; 1 ml medium containing HiBiT-tagged CTHRC1 added to 15 ml DMEM on confluent, 2 h serum-starved wild-type or GPR180-/- HEK-293T cells; 10 min at 37 °C; 5 washes with ice-cold PBS; protein extraction; Nano-Glo HiBiT Blotting System

Sequences of proteins named here, by UniProt entry; tags and fusion partners are left off. Residues count along the entry.
UniProt Q96CG8, residues 31-243: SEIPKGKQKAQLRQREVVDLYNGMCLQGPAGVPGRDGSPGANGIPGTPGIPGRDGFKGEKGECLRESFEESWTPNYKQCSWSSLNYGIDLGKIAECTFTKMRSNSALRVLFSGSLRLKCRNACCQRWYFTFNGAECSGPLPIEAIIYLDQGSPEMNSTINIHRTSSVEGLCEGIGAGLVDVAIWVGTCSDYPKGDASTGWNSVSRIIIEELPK

For “HiBiT-tagged CTHRC1 (Collagen triple helix repeat containing 1) (from UniProt Q96CG8 31-243) (ligand)”, the binding was “binds”.
